Test results taken from the supplement of paper PMC10849652.
This is one part of the list.

Protein sequences, listed by entry. Tags and fused reporters are not part of them. Lines headed by an entry give the natural chain unless they say otherwise; changes in a name come on top.
UniProt Q6ZV70: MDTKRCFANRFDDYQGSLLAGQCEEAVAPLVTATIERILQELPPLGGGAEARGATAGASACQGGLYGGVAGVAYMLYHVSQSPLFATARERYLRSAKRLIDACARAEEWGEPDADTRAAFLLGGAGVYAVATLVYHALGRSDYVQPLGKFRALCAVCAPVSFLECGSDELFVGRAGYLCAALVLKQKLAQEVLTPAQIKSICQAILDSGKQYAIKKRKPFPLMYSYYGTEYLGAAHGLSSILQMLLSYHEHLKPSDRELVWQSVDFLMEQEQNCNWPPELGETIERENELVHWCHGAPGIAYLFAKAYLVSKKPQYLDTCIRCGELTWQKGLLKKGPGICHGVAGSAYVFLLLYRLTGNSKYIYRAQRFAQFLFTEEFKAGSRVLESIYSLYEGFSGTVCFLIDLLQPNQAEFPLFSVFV
UniProt Q3ZCW2: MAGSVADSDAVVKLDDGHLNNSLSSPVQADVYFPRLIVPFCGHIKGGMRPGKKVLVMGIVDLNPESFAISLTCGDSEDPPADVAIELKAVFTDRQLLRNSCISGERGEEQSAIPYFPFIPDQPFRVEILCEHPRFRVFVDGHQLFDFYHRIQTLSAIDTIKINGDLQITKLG
UniProt P28300: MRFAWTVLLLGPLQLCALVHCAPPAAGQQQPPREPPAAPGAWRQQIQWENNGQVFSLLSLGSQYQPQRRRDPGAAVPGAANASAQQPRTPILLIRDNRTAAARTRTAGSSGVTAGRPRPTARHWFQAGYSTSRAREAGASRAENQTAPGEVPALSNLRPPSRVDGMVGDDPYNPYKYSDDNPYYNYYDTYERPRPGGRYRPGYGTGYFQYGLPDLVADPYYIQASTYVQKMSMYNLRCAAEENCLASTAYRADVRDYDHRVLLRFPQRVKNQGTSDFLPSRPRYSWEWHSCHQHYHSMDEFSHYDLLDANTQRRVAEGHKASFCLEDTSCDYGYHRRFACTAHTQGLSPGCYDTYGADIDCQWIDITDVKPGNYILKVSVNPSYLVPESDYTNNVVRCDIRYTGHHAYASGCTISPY
UniProt Q93052: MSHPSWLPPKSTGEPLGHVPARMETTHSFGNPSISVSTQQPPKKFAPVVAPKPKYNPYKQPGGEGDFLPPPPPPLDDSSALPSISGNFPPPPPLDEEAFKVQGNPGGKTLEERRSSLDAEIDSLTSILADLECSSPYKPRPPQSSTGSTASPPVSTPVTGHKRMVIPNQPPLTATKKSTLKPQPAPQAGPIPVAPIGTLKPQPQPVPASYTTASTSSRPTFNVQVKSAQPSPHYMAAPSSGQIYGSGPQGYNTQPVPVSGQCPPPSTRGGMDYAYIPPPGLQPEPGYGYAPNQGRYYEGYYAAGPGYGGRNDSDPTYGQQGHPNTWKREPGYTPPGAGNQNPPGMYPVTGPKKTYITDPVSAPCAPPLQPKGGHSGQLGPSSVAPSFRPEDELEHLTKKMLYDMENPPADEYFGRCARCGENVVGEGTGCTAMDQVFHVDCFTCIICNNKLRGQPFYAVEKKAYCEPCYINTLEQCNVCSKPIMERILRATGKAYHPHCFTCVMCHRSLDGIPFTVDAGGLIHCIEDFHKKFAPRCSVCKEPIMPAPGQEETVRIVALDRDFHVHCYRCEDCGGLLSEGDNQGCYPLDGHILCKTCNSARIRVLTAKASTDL
UniProt Q96KR4: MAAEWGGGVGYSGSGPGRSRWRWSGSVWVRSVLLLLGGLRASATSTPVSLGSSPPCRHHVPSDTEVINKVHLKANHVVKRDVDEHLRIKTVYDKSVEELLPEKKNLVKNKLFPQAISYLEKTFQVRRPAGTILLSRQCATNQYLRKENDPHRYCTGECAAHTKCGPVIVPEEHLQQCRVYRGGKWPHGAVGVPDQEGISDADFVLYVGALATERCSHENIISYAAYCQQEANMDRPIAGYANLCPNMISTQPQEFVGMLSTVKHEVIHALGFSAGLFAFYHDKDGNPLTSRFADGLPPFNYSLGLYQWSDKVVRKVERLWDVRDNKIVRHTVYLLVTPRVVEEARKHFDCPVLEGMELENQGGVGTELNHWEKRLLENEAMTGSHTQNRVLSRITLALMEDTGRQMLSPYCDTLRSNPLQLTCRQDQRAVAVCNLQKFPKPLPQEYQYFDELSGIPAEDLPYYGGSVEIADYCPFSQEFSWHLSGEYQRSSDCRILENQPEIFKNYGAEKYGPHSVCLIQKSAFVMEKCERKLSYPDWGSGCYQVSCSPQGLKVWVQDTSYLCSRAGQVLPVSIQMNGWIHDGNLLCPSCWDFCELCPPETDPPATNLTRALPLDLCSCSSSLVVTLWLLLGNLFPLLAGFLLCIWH
UniProt O95835: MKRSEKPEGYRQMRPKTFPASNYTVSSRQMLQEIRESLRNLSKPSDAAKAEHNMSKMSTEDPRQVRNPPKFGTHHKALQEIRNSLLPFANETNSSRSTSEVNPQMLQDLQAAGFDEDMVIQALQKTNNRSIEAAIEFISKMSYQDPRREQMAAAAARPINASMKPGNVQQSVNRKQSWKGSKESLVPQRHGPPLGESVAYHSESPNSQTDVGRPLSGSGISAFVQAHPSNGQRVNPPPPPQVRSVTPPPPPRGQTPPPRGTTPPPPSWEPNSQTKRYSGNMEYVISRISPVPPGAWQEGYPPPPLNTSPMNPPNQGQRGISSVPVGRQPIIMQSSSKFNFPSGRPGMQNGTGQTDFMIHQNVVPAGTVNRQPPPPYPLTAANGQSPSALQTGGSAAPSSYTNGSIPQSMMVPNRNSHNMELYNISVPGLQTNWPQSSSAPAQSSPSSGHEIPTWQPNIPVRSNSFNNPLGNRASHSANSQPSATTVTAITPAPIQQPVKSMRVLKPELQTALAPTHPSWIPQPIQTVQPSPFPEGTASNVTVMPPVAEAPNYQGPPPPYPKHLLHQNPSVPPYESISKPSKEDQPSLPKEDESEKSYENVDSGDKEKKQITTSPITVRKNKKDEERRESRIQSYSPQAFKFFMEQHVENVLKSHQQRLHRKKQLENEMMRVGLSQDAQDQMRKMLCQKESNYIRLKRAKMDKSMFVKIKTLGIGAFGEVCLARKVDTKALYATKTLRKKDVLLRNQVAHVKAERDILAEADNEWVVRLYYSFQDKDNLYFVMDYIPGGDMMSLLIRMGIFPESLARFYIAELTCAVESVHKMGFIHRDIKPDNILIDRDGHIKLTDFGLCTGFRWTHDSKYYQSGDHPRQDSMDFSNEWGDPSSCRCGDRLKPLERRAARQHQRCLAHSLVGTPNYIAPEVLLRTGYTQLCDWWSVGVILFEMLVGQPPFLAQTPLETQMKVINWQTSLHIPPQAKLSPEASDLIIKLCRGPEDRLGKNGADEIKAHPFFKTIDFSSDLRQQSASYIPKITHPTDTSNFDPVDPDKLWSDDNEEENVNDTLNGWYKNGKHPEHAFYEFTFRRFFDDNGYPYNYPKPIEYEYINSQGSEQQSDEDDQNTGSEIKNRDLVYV
UniProt P02545: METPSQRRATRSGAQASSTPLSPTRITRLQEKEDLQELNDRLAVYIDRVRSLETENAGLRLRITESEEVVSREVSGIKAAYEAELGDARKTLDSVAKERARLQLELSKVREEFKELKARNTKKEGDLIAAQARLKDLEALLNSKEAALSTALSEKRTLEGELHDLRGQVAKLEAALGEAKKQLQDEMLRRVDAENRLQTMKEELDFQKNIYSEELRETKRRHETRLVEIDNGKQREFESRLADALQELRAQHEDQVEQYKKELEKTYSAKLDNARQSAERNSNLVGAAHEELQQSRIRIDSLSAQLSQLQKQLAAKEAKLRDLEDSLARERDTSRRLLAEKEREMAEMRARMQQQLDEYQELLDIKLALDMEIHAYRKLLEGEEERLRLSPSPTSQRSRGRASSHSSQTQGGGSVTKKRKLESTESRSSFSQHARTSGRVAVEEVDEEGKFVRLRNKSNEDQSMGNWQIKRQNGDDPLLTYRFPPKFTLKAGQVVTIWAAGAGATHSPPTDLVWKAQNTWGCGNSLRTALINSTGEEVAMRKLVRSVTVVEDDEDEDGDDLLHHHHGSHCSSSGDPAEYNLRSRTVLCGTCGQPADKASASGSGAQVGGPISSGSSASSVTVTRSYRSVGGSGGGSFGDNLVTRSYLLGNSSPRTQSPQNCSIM
UniProt P48059, whole entry, looked up: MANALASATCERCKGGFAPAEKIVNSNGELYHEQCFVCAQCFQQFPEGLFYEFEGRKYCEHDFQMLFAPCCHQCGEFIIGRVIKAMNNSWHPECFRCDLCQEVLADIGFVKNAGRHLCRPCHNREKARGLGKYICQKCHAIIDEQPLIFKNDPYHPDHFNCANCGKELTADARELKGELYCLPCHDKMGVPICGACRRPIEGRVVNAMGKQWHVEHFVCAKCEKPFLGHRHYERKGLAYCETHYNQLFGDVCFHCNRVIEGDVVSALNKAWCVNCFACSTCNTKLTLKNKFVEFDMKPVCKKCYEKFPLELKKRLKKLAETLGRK
UniProt Q8NG48: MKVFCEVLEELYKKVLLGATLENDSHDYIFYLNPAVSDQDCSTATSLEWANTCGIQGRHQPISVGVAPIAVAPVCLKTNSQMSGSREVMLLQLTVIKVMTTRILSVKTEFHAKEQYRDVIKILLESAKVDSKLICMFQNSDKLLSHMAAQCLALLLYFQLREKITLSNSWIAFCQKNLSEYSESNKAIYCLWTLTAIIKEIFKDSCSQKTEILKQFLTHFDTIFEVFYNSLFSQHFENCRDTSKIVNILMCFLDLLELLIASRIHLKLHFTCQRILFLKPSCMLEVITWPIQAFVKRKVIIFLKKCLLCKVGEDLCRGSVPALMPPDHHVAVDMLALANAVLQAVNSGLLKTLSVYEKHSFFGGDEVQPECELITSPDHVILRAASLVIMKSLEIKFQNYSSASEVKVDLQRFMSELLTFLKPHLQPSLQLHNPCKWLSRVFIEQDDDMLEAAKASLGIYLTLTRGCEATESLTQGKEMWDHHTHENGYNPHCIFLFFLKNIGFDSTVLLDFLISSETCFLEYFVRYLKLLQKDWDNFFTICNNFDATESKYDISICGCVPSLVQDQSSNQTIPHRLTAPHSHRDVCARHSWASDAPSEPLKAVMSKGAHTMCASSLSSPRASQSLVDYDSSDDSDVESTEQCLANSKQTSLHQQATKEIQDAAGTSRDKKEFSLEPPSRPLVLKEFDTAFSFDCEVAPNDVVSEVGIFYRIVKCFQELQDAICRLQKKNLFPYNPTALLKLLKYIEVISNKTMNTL
UniProt P07864: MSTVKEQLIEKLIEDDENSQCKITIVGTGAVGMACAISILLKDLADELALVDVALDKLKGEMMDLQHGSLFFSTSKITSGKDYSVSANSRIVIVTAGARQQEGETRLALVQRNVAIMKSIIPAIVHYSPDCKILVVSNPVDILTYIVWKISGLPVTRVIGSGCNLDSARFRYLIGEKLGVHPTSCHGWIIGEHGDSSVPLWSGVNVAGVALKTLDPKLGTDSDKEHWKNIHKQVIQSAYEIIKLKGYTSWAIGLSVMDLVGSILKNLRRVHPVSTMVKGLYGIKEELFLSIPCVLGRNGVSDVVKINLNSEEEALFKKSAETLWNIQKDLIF
UniProt Q9Y546: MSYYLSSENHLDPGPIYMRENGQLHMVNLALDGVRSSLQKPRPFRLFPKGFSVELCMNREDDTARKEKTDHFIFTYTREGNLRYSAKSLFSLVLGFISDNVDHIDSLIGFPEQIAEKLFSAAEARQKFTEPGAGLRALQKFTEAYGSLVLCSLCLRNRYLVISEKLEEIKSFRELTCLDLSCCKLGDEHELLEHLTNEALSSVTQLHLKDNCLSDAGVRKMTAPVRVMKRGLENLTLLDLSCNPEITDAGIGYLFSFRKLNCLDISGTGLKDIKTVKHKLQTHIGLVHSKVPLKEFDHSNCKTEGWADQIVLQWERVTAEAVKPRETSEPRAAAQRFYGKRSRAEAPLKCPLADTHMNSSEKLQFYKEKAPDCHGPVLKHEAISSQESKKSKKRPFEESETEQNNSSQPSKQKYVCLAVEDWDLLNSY
UniProt Q52LA3: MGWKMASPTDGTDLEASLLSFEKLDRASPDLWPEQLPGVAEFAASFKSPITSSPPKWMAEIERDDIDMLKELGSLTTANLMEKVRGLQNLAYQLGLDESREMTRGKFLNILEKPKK
UniProt Q8WVP7: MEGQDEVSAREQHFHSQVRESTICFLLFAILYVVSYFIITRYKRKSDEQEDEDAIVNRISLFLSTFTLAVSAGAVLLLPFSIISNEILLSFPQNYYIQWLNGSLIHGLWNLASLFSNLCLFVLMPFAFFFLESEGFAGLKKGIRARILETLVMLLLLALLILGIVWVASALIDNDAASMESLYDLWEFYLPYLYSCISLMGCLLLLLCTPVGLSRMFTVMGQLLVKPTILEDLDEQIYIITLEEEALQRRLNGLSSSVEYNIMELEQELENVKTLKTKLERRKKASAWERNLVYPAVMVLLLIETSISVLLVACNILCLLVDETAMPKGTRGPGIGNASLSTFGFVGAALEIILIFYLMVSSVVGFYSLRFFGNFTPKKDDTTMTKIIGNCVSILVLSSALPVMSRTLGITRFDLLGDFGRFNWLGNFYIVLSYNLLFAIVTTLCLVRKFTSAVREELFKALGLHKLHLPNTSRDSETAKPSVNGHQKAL

How the values were obtained:
Assay in all cases: log2 fold change, soluble protein after heating vs DMSO (PISA); higher = thermal stabilisation; K562 cells, 10 uM, 30 min; active = over 0.2 and 3.5 SD of the protein, either way, in both replicates (recomputed)
[1] = compound: CC[C@H](C)N1C=C(C2=C(C=C(C=C21)C3=CN=C(C=C3)N4CCNCC4)C(=O)NCC5=C(C=C(NC5=O)C)C)C
Summary of the method: (§1)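 Aliquots of K562 cells (2×10^6 cells/mL) treated with 10 μM compound for 30 min were heated for 3 min over 48°C-58°C. After pooling and extraction in PBS with 0.5% NP-40 at 4°C, soluble protein from a 21,000xg, 90 min spin was quantified by TMTpro 16plex LC-MS/MS with channel sums equalised. Thermal stability is expressed against control samples, from duplicates, as a log2 fold change.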

[2] = compound: CC[C@H](C)[C@@H](C(=O)N[C@@H]([C@@H](C)O)C(=O)N[C@@H](CC(C)C)C(=O)[C@]1(CO1)C)NC(=O)[C@H]([C@@H](C)CC)N(C)C(=O)C [epoxomicin]
Summary of the method: as §1

[3] = compound: CN(CCOC1=CC=C(C=C1)C[C@H]2C(=O)NC(=O)S2)C3=CC=CC=N3 (racemic) [rosiglitazone]
Summary of the method: as §1

[4] = compound: CN1C2=C(C3=C1C(=O)N(N=C3)CC4=CC(=CC=C4)N)SC(=C2)S(=O)C
Summary of the method: as §1

[5] = compound: CN1CCN(CCOc2cc(OC3CCOCC3)c3c(Nc4c(Cl)ccc5c4OCO5)ncnc3c2)CC1 [saracatinib]
Summary of the method: as §1

[6] = compound: CN1CCN(c2nc(C3=C(c4c[nH]c5ccccc45)C(=O)NC3=O)c3ccccc3n2)CC1 [sotrastaurin]
Summary of the method: as §1

[7] = compound: CN1CC[C@H](c2c(O)cc(O)c3c(=O)cc(-c4ccccc4Cl)oc23)[C@H](O)C1 [alvocidib]
Summary of the method: as §1

[8] = compound: CNc1nc(-c2ccc3c(N)n[nH]c3c2)cc(N2C[C@@H](C(=O)NC3CCCCC3)CC[C@H]2C)n1
Summary of the method: as §1

[9] = compound: CNC(=O)C1=CC=CC=C1NC2=NC(=NC=C2Cl)NC3=C(C=C(C=C3)N4CCOCC4)OC
Summary of the method: as §1

[10] = compound: CC[C@@H]1C(=O)N(C)c2cnc(Nc3ccc(C(=O)N[C@H]4CC[C@H](N5CCN(CC6CC6)CC5)CC4)cc3OC)nc2N1C(C)C [volasertib]
Summary of the method: as §1

[11] = compound: CCn1c(C(=O)N(C2CC2)C2CC2)cc2c3c(ncn3C)c(Nc3cc(C)n(C)n3)nc21
Summary of the method: as §1

[12] = compound: CCn1cc(-c2ccnc3[nH]c(-c4cccc(CN(C)C)c4)cc23)c(-c2ccc(NC(=O)N(C)C)cc2)n1
Summary of the method: as §1

[13] = compound: CN1CCC(CNc2ccc3ncc(-c4cccc(OC(F)(F)F)c4)n3n2)CC1
Summary of the method: as §1

[14] = compound: CN1CCc2c(c3ccccc3n2Cc2ccc(C(=O)NO)cc2)C1 [Tubastatin A]
Summary of the method: as §1

[15] = compound: CN(C)CC(=O)Nc1ccc2[nH]c(=O)c3ccccc3c2c1
Summary of the method: as §1

[16] = compound: CNC(=O)c1ccc(Nc2ncc(C(F)(F)F)c(NCc3nccnc3N(C)S(C)(=O)=O)n2)cc1 [defactinib]
Summary of the method: as §1

[17] = compound: COC(=O)[C@H](CCSC)NC(=O)C1=C(C=C(C=C1)NC[C@H](CS)N)C2=CC=CC=C2
Summary of the method: as §1

Measured: log2 fold change

LANCL3 (UniProt Q6ZV70)
inactive: [1] 0.173 | [2] 0.053 | [3] 0.037 | [4] -0.001 | [5] 0.007 | [6] 0.043 | [7] -0.021 | [8] -0.088

LGALSL (UniProt Q3ZCW2)
inactive: [4] 0.408 | [5] 0.055 | [8] -0.117

LOX (UniProt P28300)
inactive: [1] -0.191 | [9] -0.303

LPP (UniProt Q93052)
inactive: [1] -0.401 | [2] -0.289 | [3] 0.282 | [6] 0.141

LMLN isoform 3 (UniProt Q96KR4)
inactive: [10] 0.32 | [2] -0.131 | [3] 0.183 | [4] 0.189 | [5] -0.374 | [8] -0.001

LAMA2 (UniProt P24043)
inactive: [1] -0.099 | [11] -0.169 | [3] -0.141 | [7] 0.087 | [9] -0.253

LAPTM4A (UniProt Q15012)
inactive: [6] -0.052

LATS1 (UniProt O95835)
inactive: [12] -0.001 | [13] -0.037

LMNA isoform 2 (UniProt P02545)
inactive: [14] 0.052

4 neighbouring entries out of the list so far:
LANCL3 (UniProt Q6ZV70)
inactive: [1] 0.173 | [2] 0.053 | [3] 0.037 | [4] -0.001 | [5] 0.007 | [6] 0.043 | [7] -0.021 | [8] -0.088

LGALSL (UniProt Q3ZCW2)
inactive: [4] 0.408 | [5] 0.055 | [8] -0.117

LOX (UniProt P28300)
inactive: [1] -0.191 | [9] -0.303

LPP (UniProt Q93052)
inactive: [1] -0.401 | [2] -0.289 | [3] 0.282 | [6] 0.141

Next records.

LIMS1 isoform 5 (UniProt P48059)
inactive: [7] 0.275

LINS1 (UniProt Q8NG48)
inactive: [2] 0.007 | [11] -0.016 | [3] -0.119 | [6] 0.071 | [9] -0.031

L1TD1 (UniProt Q5T7N2)
inactive: [12] -0.394 | [4] 0.075 | [13] -0.016 | [5] -0.155 | [7] 0.062 | [14] 0.079 | [8] -0.193

LDHC (UniProt P07864)
inactive: [1] -0.041 | [2] 0.523 | [3] 0.335 | [6] -0.045

LRRC42 (UniProt Q9Y546)
inactive: [11] -0.117 | [12] -0.028 | [15] -0.063 | [3] -0.034 | [4] -0.028 | [13] -0.243 | [5] 0.153 | [7] 0.069 | [14] 0 | [9] 0.135 | [16] 0.076 | [8] 0.062 | [17] 0.011

LIN52 (UniProt Q52LA3)
inactive: [4] 0.003 | [5] 0.038 | [8] -0.059

LMBR1 isoform 3 (UniProt Q8WVP7)
inactive: [10] -0.452 | [2] 0.26 | [12] -0.456 | [15] 0.049 | [4] 0.033 | [13] -0.314 | [5] 0.085 | [6] -0.004 | [14] 0.079 | [9] -0.045 | [16] -0.104 | [8] -0.009 | [17] 0.132

LAMA5 (UniProt O15230)
inactive: [1] -0.065 | [2] -0.117 | [11] -0.012 | [12] 0.053 | [15] -0.172 | [4] 0.224 | [13] -0.203 | [5] -0.114 | [7] 0.051 | [14] 0.126 | [9] -0.186 | [16] 0.194 | [8] 0.099 | [17] 0.102
